Data from PubChem BioAssay AID540276 (National Center for Advancing Translational Sciences (NCATS), 2011).
Out of some 300,000 compounds screened, about 5,400 (1.8%) were called active. This list was built around the results that the source calls inconclusive (neither active nor inactive); the mix of calls is not that of the screen. The call rests on the fitted dose curve; tested in HEK293 cells. Potencies beside an inconclusive call are fits to weak or partial responses and may not hold up.

Assay: qHTS for inhibitors of binding or entry into cells for Marburg Virus
Conditions: Marburg virus pseudotyped entry inhibition, cell reporter; series mostly up to 37.8 µM
Potency means the concentration at half of the fitted maximal effect.

SMILES | Potency
Cc1ccc(NC(=O)CN(C)C(=O)c2ccc(Br)o2)cc1 | inconclusive: 5.62 µM [activator, single point]
CC1Cc2cc(-c3csc(NC(=O)Cc4ccccc4)n3)ccc2N1S(C)(=O)=O (centres undefined) | active: 10.3 µM
Fc1ccc(NC(=S)N2CCCC2)cc1Cl | inconclusive: 0.02 µM [activator, full curve, poor fit]
COc1cccc(CC(NC(C)=O)C(=O)NC2CCN(C(=O)c3ccc(Cl)cc3)CC2)c1OC (centres undefined) | inactive
COc1ccccc1C(CNC(=O)c1ccc(NS(=O)(=O)c2ccc(F)c(C)c2)cc1)N1CCCC1 (centres undefined) | inconclusive: 31.6 µM [inhibitor, single point]
CN1CCN(C(=O)Nc2cccc(Cl)c2)c2cccnc21 | inactive
Cc1ccc(S(=O)(=O)c2cc3c(=O)n4ccccc4nc3n(CCCN3CCOCC3)c2=N)cc1C | inconclusive: 11.2 µM [inhibitor, partial curve, poor fit]
COc1ccc(-n2c(O)c(/C=N/Nc3nc(C)cc(C)n3)c3ccccc3c2=O)cc1OC | inconclusive: 15.8 µM [inhibitor, partial curve, poor fit]
N#CC1(NC(=O)COC(=O)CCCN=C2NS(=O)(=O)c3ccccc32)CCCCC1 | inactive
COc1ccc(C(C(=O)Nc2ccc(C(C)C)cc2)N(Cc2ccco2)C(=O)CC2NC(=O)NC2=O)cc1 (centres undefined) | inconclusive: 35.5 µM [inhibitor, single point]
O=C(NC1CCCCC1)C(c1ccccc1)N(Cc1ccco1)C(=O)c1csnn1 (centres undefined) | inconclusive: 1.78 µM [inhibitor, partial curve, poor fit]
C=CCNC(=O)/C(=C/c1ccco1)NC(=O)c1ccc(Br)o1 | inactive
CCOC(=O)c1cnc2c(C(F)(F)F)cccc2c1Nc1cccc(C(=O)OC)c1 | inactive
Cc1cc(C(=O)N/N=C/c2cccc(Cl)c2Cl)no1 | inconclusive: 17.8 µM [activator, partial curve, poor fit]
CCOc1ccccc1NC(=O)CSc1nc2c(oc3ccccc32)c(=O)n1Cc1ccco1 | inconclusive: 3.16 µM [inhibitor, partial curve, poor fit]
Cc1cc(C(=O)N/N=C2\CC(=O)CC(C)(C)C2)n[nH]1 | inactive
CC12CCC(C(=O)NCc3ccccn3)(OC1=O)C2(C)C (centres undefined) | inconclusive: 35.5 µM [inhibitor, single point]
COc1ccc(-c2noc(CSc3nnc(-c4ccc(Cl)cc4)n3C)n2)cc1OC | inactive
COc1cccc(/C=C/c2ccc3ccccc3n2)c1OC(C)=O | inconclusive: 0.891 µM [inhibitor, full curve, poor fit]
O=C(COC(=O)c1cccc(S(=O)(=O)N2CCOCC2)c1)c1ccccc1 | inconclusive: 1.78 µM [activator, single point]
O=C(CN1CCOCC1)Nc1ncc(Cc2cccc(Cl)c2)s1 | inactive
Cc1cc(C)c(OCCOCCN(C)C)c(Br)c1 | inconclusive: 5.62 µM [inhibitor, single point]

As entered above.
Potency, O=C(COC(=O)c1cccc(S(=O)(=O)N2CCOCC2)c1)c1ccccc1 reads inconclusive: 1.78 µM [activator, single point]
Potency, Cc1cc(C(=O)N/N=C2\CC(=O)CC(C)(C)C2)n[nH]1 reads inactive
Potency, Fc1ccc(NC(=S)N2CCCC2)cc1Cl reads inconclusive: 0.02 µM [activator, full curve, poor fit]

Further results follow.

SMILES | Potency
COCCCn1c(O)c(/C=C2\N=C(C#N)C(=Nc3ccc(C)cc3)O2)sc1=S | inconclusive: 12.6 µM [inhibitor, partial curve, poor fit]
Cc1ccc2oc(Nc3nc(-c4ccccc4)cc(=O)[nH]3)nc2c1 | inconclusive: 1.12 µM [inhibitor, full curve, poor fit]
COc1ccc(CC(=O)c2cc(OC)c(OC)cc2CC(=O)O)cc1OC | inactive
O=c1c([N+](=O)[O-])cccn1Cc1ccc(F)cc1Cl | inconclusive: 35.5 µM [inhibitor, single point]
COc1ccc(S(=O)(=O)Nc2cc(C)c(O)c(S(=O)(=O)c3ccccc3)c2)cc1 | inconclusive: 0.291 µM [inhibitor, full curve, poor fit]
CCC(C)N(C(=O)COC(=O)c1ccc(=O)n(Cc2ccccc2)n1)C1CCS(=O)(=O)C1 (centres undefined) | inconclusive: 35.5 µM [activator, single point]
Cc1cccc(C(=O)Nc2ccccc2SCC2CSc3nc4ccccc4c(=O)n32)c1 (centres undefined) | active: 0.891 µM
Cc1ccc(/C(O)=C2\C(=O)C(=O)N(Cc3ccco3)[C@@H]2c2cccs2)cc1 | inactive
O=C(NCCc1ccccc1)Nc1cccc(Cl)c1 | inconclusive: 4.47 µM [activator, full curve]
COc1ccc(CNC(=O)C2CCN(C(=O)c3ccc(-c4ccccc4)cc3)CC2)cc1 | inconclusive: 0.794 µM [activator, full curve]
Cc1csc(NC(=O)CSc2nnc(-c3ccoc3C)n2Cc2ccco2)n1 | inconclusive: 17.8 µM [inhibitor, partial curve, poor fit]
O=C(O)c1ccc(N2C(=O)CC(N3CCN(c4cccc(C(F)(F)F)c4)CC3)C2=O)cc1 (centres undefined) | inactive
COc1ccccc1CNC(=O)COC(=O)c1ccc(C)c(S(=O)(=O)N2CCCCC2)c1 | inactive
O=C(COc1ccc(Oc2ccccc2)cc1)NC1CCS(=O)(=O)C1 (centres undefined) | inconclusive: 20 µM [inhibitor, partial curve, poor fit]
O=C(C1CCC1)N1CCN(c2ccc(C(F)(F)F)cc2[N+](=O)[O-])CC1 | inactive
CCc1ccc(NC(=O)CCCc2nc(-c3ccco3)no2)cc1 | inconclusive: 31.6 µM [activator, single point]
COc1cc2[nH]c(=O)n(CCCC(=O)NCc3ccccc3)c(=O)c2cc1OC | inconclusive: 7.08 µM [inhibitor, single point]
COCc1nnc(NC(=O)c2ccc3c(c2)OCO3)s1 | inconclusive: 35.5 µM [inhibitor, single point]
Cn1cccc1/C=N/NC(=O)c1cccc(OC(F)(F)C(F)F)c1 | inactive
C/C(=N\Nc1ccc(S(N)(=O)=O)cc1[N+](=O)[O-])c1cccnc1 | inactive
COc1ccccc1OCCC(=O)OCC(=O)Nc1ncc(Cl)cc1Cl | inconclusive: 0.708 µM [activator, single point]
Cc1ccc(-c2n[nH]c(=S)n2/N=C\c2ccco2)cc1 | inconclusive: 35.5 µM [activator, single point]
